Measured values published in the supplement of paper PMC7125110.
± gives the standard error. The uncertainty is large for many entries.

B1: glmS ribozyme (parent)
chain: AUAAAAGCGCCAGAACUACAGAAAUGUAGUUGACGAGGAGGAGGUUUAUCGAAUUUUCGGCGGAUGCCUCCAAA

Variants of: B1
Test: KM; higher = weaker cofactor use; RNA array
Settings: with glucosamine-6-phosphate
Procedure, shortened: (§1)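 Barcoded glmS ribozyme variants on sequenced MiSeq chips were transcribed in situ by E. coli RNA polymerase and tracked through a hybridised Cy3 probe at 37 °C. Glucosamine-6-phosphate (40 μM to 10 mM) in HEPES/KCl/Mg(OAc)2 buffer was flowed in, and tiles were imaged over ~14 h. Signals were normalised to baseline and to non-cleaving reference variants; per-tile medians were fit to one- or two-exponential decays to give kobs. kcat and KM came from weighted Michaelis–Menten fits across concentrations.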

Row | Variant | KM [µM]
1 | G44A U56A | 2650 ± 150
2 | A53U U57C | 1360 ± 210
3 | A64G G66C | 2990 ± 1700
4 | U46A G66C | 2150 ± 1300
5 | C58G G60U | 3710 ± 2000
6 | G41U U47G | 3850 ± 2600
7 | C50U U57G | 195 ± 110
8 | U45A C58U | 4210 ± 1900
9 | U46C | 1410 ± 170
10 | G51A C61A | 234 ± 230
11 | G51U C61G | 28.5 ± 24
12 | U56A C68U | 359 ± 220
13 | U54A U65G | 2600 ± 1400
14 | A39G A53G C67G | 580 ± 370
15 | U47C G66A | 1050 ± 470
16 | G40U A53G | 1010 ± 690
17 | A64G C71G | 811 ± 570
18 | U54G C68U C70A | 1060 ± 560
19 | U57A C58A | 573 ± 460
20 | U57A C58G | 4690 ± 580

Random excerpt: 5 entries already listed, in no set order.
Row | Variant | KM [µM]
11 | G51U C61G | 28.5 ± 24
8 | U45A C58U | 4210 ± 1900
6 | G41U U47G | 3850 ± 2600
16 | G40U A53G | 1010 ± 690
15 | U47C G66A | 1050 ± 470

More results:

Row | Variant | KM [µM]
21 | G38A U55C | 37.7 ± 15
22 | U54G C58G | 4280 ± 1000
23 | A42C C70G | 1410 ± 550
24 | A42G G66A U69A | 1590 ± 490
25 | U56A C70G | 75 ± 43
26 | U45C C70G | 14200 ± 4600
27 | A39U G40A C67A | 760 ± 190
28 | G37C U65G | 661 ± 470
29 | G40U A48G | 18200 ± 13000
30 | U57A C67U | 3210 ± 1900
31 | U45A U55G | 136 ± 77
32 | A52G U65A | 6000 ± 4000
33 | A52G U65G | 4110 ± 2800
34 | A53C G59C | 236 ± 200
35 | G43A U45G | 1540 ± 1000
36 | U54A C58A | 5450 ± 1700
37 | A48C G66A | 2900 ± 1700
38 | A48C U55C | 2810 ± 1600
39 | G59U U65G | 13.8 ± 13

Variants of: B1
Test: self-cleavage kobs at 40 uM GlcN6P; higher = faster cleavage; RNA array
Settings: with glucosamine-6-phosphate
Procedure, shortened: as §1

Row | Variant | self-cleavage kobs at 40 uM GlcN6P [s⁻¹]
40 | A39C U65G | 1.92e-05 ± 9.8e-06
41 | A12G U47G | 1.37e-05 ± 1.3e-05
42 | C34A G63U C70U C71G | 5.92e-05 ± 3.4e-05
43 | A15U U57G C58U C70A | 2.88e-05 ± 2.2e-05
44 | A12U G13A A48G U56C U65A C67A C71G | 3.48e-05 ± 1.9e-05
45 | C10A U30A C58G C67U C70A | 3.01e-05 ± 2.4e-05
46 | C50U C68G | 1.64e-05 ± 1.2e-05
47 | U47A U65G U69C | 3.69e-05 ± 1.9e-05
48 | G29C G60A U65G C68G | 5.19e-05 ± 3.6e-05
49 | U45G C68U | 1.45e-05 ± 1.2e-05
50 | C11G C50G C68G C71U | 4.41e-05 ± 2.3e-05
51 | U31G U55A C67A | 5.08e-05 ± 2.7e-05
52 | G38C U69G | 2.38e-05 ± 1.7e-05
53 | A36C C58G C71A | 3.91e-05 ± 2.5e-05
54 | U57G U69G | 1.81e-05 ± 1.6e-05
55 | G13U A39G U56G | 4.04e-05 ± 2.7e-05
56 | A39U U65A | 2.42e-05 ± 1.5e-05
57 | A6U U46G C58U C67U C68A | 3.41e-05 ± 2.6e-05
58 | A36C G62A C70G | 3.85e-05 ± 2.9e-05
59 | A53G G66C | 3.21e-05 ± 3e-05
60 | C11A U30A C70G | 3.08e-05 ± 2.2e-05
61 | A6U C50G A53C C71A | 2.79e-05 ± 2.8e-05
62 | G13A A53G | 2.34e-05 ± 1.5e-05
63 | A42G U45A U65C | 3.05e-05 ± 2.2e-05
64 | G38C C58G C61G C67A | 3.89e-05 ± 2.3e-05
65 | C8A C50G U54G C68U | 3.5e-05 ± 2.9e-05
66 | A6U U69G | 2.29e-05 ± 1.8e-05

Variants of: B1
Test: self-cleavage kobs at 640 uM GlcN6P; higher = faster cleavage; RNA array
Settings: with glucosamine-6-phosphate
Procedure, shortened: as §1

Row | Variant | self-cleavage kobs at 640 uM GlcN6P [s⁻¹]
67 | A6G C67A | 2.31e-05 ± 1.3e-05
68 | A6G C67U | 0.00401 ± 0.0029
69 | U47A U65G U69C | 0.000253 ± 0.00013
70 | U54G C68U C70A | 2.71e-05 ± 2e-05
71 | C10U C67U C70U | 3.13e-05 ± 2.7e-05
72 | U54G C58G | 2.29e-05 ± 1.4e-05
73 | A36C C58G C71A | 0.000104 ± 5.5e-05
74 | C10A U31C U47A C50G G60C C61U | 0.000283 ± 0.00021
75 | C10G G59U | 1.65e-05 ± 1.3e-05
76 | C11U A15G G37C U47C U69G | 0.000554 ± 0.00029
77 | C11U A52G C70U A72U | 2.5e-05 ± 2.4e-05
78 | C11A G51U U65C C68U | 3.38e-05 ± 2e-05
79 | C8U C10U C70U | 3.08e-05 ± 2.6e-05
80 | A6U A52G C68U | 4.52e-05 ± 3.3e-05

Variants of: B1
Test: self-cleavage kobs at 2500 uM GlcN6P; higher = faster cleavage; RNA array
Settings: with glucosamine-6-phosphate
Procedure, shortened: as §1

Row | Variant | self-cleavage kobs at 2500 uM GlcN6P [s⁻¹]
81 | A6G C67A | 4.49e-05 ± 2.7e-05
82 | A6G C67U | 4.39e-05 ± 2.6e-05
83 | C10U C67U C70U | 2.42e-05 ± 1.9e-05
84 | G40U A48G | 1.03e-05 ± 1e-05
85 | C11A G51U U65C C68U | 4.36e-05 ± 2.8e-05

Variants of: B1
Test: self-cleavage kobs at 10000 uM GlcN6P; higher = faster cleavage; RNA array
Settings: with glucosamine-6-phosphate
Procedure, shortened: as §1

Row | Variant | self-cleavage kobs at 10000 uM GlcN6P [s⁻¹]
86 | A12U G13A A48G U56C U65A C67A C71G | 2.34e-05 ± 1.5e-05
87 | C10A U30A C58G C67U C70A | 2.94e-05 ± 1.7e-05
88 | A36C C58G C71A | 2.88e-05 ± 1.5e-05
89 | U57G U69G | 1.55e-05 ± 1.2e-05
90 | G38C C58G C61G C67A | 2.19e-05 ± 1.9e-05
91 | A6U U69G | 1.97e-05 ± 1.3e-05

Variants of: B1
Test: self-cleavage kobs at 160 uM GlcN6P; higher = faster cleavage; RNA array
Settings: with glucosamine-6-phosphate
Procedure, shortened: as §1

Row | Variant | self-cleavage kobs at 160 uM GlcN6P [s⁻¹]
92 | U57A C67U | 1.85e-05 ± 1.6e-05
93 | A52G U65A | 2.25e-05 ± 2e-05
94 | A48C U55C | 2.74e-05 ± 1.9e-05
95 | A6U U69G | 3.21e-05 ± 1.8e-05
